Record: PubChem BioAssay AID504793 (Drosophila RNAi Screening Center, 2011)

Test: 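Genes required for cells to halt at G2/M after double-strand DNA breaks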 (primary screen)
Cell system: Drosophila S2R+ cells
Knock-down reagent: long dsRNA against Drosophila genes, about 0.25 µg dsRNA per well
Timing: 4 days of dsRNA, then 4 hours of drug before read-out
Challenge: doxorubicin 0.5 µM for 4 hours to cause double-strand breaks, in cells also given a low, harmless dose of dsRNA against nbs to sensitise the assay
Detection: 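Mitotic index as the number of phospho-histone H3-positive cells in each well following doxorubicin, given as raw counts without normalisation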
Reading the numbers: mitotic cells: higher = more cells in mitosis, weaker G2 arrest
Active means: 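Genes are called active only when high mitotic counts were reproduced with independent dsRNAs and mitosis was checked for delay without damage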
Meaning of the calls: active = confirmed in follow-up tests; inactive = not confirmed
The screen tested about 23,000 reagents; this is an unselected part of those that have a named target and a result. Of all reagents, 62 (0.27%) were called active. 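Calls come from follow-up tests whose scores are not deposited, so confirmed genes may have low counts here; counts are not normalised per plate.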 The raw values are shown without normalisation. The numbers tell different reagents against one gene apart. Names joined by + are all predicted targets of the reagent.

| gene | reagent no. | mitotic cells, replicate 1 | Call |
| --- | --- | --- | --- |
| drk | 1 | 2 | inactive |
| drk | 2 | 6 | inactive |
| Chchd3 | 1 | 9 | inactive |
| Chchd3 | 2 | 10 | inactive |
| Dscam1 | 1 | 4 | inactive |
| Dscam1 | 2 | 9 | inactive |
| Dscam1 | 3 | 10 | inactive |
| Dscam1 | 4 | 5 | inactive |
| PH4alphaEFB | 1 | 8 | inactive |
| PH4alphaEFB | 2 | 18 | inactive |
| Trmt61 | 1 | 6 | inactive |
| Jheh3 | 1 | 7 | inactive |
| Jheh3 | 2 | 2 | inactive |
| CG15578 | 1 | 11 | inactive |
| CG8187 | 1 | 4 | inactive |
| RtcB | 1 | 3 | inactive |
| CG3942 | 1 | 3 | inactive |
| CG3942 | 2 | 7 | inactive |
| CG5446 | 1 | 4 | inactive |
| CG1824 | 1 | 6 | inactive |
| CG33251 (retired record) + CG9915 | 1 | 4 | inactive |
| CG33333 | 1 | 6 | inactive |
| Gnpat | 1 | 9 | inactive |
| Smg5 | 1 | 3 | inactive |
| Smg5 | 2 | 5 | inactive |
| RabGGTa | 1 | 4 | inactive |
| CG1572 | 1 | 9 | inactive |
| sut2 | 1 | 6 | inactive |
| CG1738 | 1 | 9 | inactive |
| CG1738 | 2 | 3 | inactive |
| CG33109 | 1 | 4 | inactive |
| D19A | 1 | 7 | inactive |
| D19A | 2 | 4 | inactive |
| CG13725 | 1 | 10 | inactive |
| mbt | 1 | 7 | inactive |
| mbt | 2 | 5 | inactive |
| CG31157 | 1 | 12 | inactive |
| CG31157 | 2 | 4 | inactive |
| DCTN1-p150 | 1 | 15 | inactive |
| DCTN1-p150 | 2 | 32 | inactive |
| CG2614 | 1 | 4 | inactive |
| mil | 1 | 24 | inactive |
| CG1792 | 1 | 18 | inactive |
| CG1792 | 2 | 5 | inactive |
| CG13744 | 1 | 6 | inactive |
| CG6583 | 1 | 3 | inactive |
| CG6583 | 2 | 5 | inactive |
| CG32081 | 1 | 8 | inactive |
| Ptx1 | 1 | 16 | inactive |
| Ptx1 | 2 | 10 | inactive |
| Vajk1 | 1 | 8 | inactive |
| Vajk1 | 2 | 3 | inactive |
| Bap55 | 1 | 12 | inactive |
| Xpd | 1 | 3 | inactive |
| Xpd | 2 | 9 | inactive |
| CG8677 + CG31626 | 1 | 11 | inactive |
| BaraA1 + BaraA2 | 1 | 3 | inactive |
| CG13585 | 1 | 1 | inactive |
| cup | 1 | 10 | inactive |
| cup | 2 | 10 | inactive |
| CG6154 | 1 | 9 | inactive |
| CG6154 | 2 | 4 | inactive |
| CG7646 | 1 | 4 | inactive |
| aph-1 | 1 | 2 | inactive |

A run of entries from the list above, as a working copy:
| gene | reagent no. | mitotic cells, replicate 1 | Call |
| --- | --- | --- | --- |
| Ptx1 | 1 | 16 | inactive |
| Ptx1 | 2 | 10 | inactive |
| Vajk1 | 1 | 8 | inactive |
| Vajk1 | 2 | 3 | inactive |
| Bap55 | 1 | 12 | inactive |
| Xpd | 1 | 3 | inactive |
| Xpd | 2 | 9 | inactive |
| CG8677 + CG31626 | 1 | 11 | inactive |
| BaraA1 + BaraA2 | 1 | 3 | inactive |
| CG13585 | 1 | 1 | inactive |
| cup | 1 | 10 | inactive |
| cup | 2 | 10 | inactive |
| CG6154 | 1 | 9 | inactive |

Additional entries follow.
| gene | reagent no. | mitotic cells, replicate 1 | Call |
| --- | --- | --- | --- |
| SiaT | 1 | 3 | inactive |
| ham | 1 | 7 | inactive |
| ham | 2 | 9 | inactive |
| ham | 3 | 8 | inactive |
| ham | 4 | 8 | inactive |
| CG33158 | 1 | 12 | inactive |
| CG33158 | 2 | 9 | inactive |
| CG33158 | 3 | 4 | inactive |
| Diap1 | 1 | 7 | inactive |
| Cog4 | 1 | 5 | inactive |
| CheB93a | 1 | 6 | inactive |
| Sgs8 | 1 | 10 | inactive |
| cN-IIIB | 1 | 6 | inactive |
| CG13216 | 1 | 2 | inactive |
| CG11257 | 1 | 7 | inactive |
| CG13972 | 1 | 14 | inactive |
| CG13972 | 2 | 5 | inactive |
| Cpr60D | 1 | 9 | inactive |
| CG7320 | 1 | 5 | inactive |
| CG7320 | 2 | 6 | inactive |
| Idgf2 | 1 | 7 | inactive |
| Idgf2 | 2 | 2 | inactive |
| Gr5a | 1 | 11 | inactive |
| uex | 1 | 11 | inactive |
| uex | 2 | 6 | inactive |
| CG46441 | 1 | 11 | inactive |
| CG46441 | 2 | 9 | inactive |
| Toll-7 | 1 | 2 | inactive |
| Toll-7 | 2 | 10 | inactive |
| ND-13A | 1 | 3 | inactive |
| ND-13A | 2 | 4 | inactive |
| CG12116 | 1 | 14 | inactive |
| CG15344 (retired record) | 1 | 15 | inactive |
| Rgk1 (retired record) | 1 | 3 | inactive |
| Rgk1 (retired record) | 2 | 10 | inactive |
| CG33160 | 1 | 6 | inactive |
| CG33160 | 2 | 7 | inactive |
| MED28 | 1 | 18 | inactive |
| Bruce | 1 | 5 | inactive |
| Osi4 | 1 | 4 | inactive |
| AIMP2 | 1 | 9 | inactive |
| AIMP2 | 2 | 6 | inactive |
| CG13288 | 1 | 2 | inactive |
| RpS12 | 1 | 6 | inactive |
| udd | 1 | 6 | inactive |
| CG5819 | 1 | 5 | inactive |
| CG5819 | 2 | 6 | inactive |
